PubChem BioAssay AID1224828 – NIAID | 2016
The deposit covers about 17,000 reagents; shown is a random part of them. 762 of all reagents (4.5%) count as active. 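Active calls include both raised and lowered p65 entry, mostly lowered; wells with fewer than 50 cells lack a z-score.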 Raw values are not corrected between plates.

- Assay: 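Regulators linking TLR4 signalling to p65 nuclear translocation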 (primary screen)
- Cell system: mouse RAW264.7 G9 macrophage reporter cells (GFP-p65, Tnf promoter-mCherry)
- Reagent: siRNA pool against mouse genes, 100 nM
- Timing: 2 days siRNA transfection, then 40 min LPS before fixation
- Conditions: LPS (Salmonella minnesota R595) at 10 ng/ml
- Detection: 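Microscopy ratio of nuclear to perinuclear-ring GFP-p65 signal, scaled to the plate median; gene score is the average of two replicate robust z-scores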
- Reading the numbers: p65 translocation robust z-score: higher = more nuclear NF-kappaB p65 after LPS than the plate median; nuclear/cytoplasmic p65 ratio: higher = more nuclear NF-kappaB p65
- Rule for the call: 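Called active when z exceeds 3.3 or falls under -1.56 (median of Tlr4 controls), giving activity score of at least 50; no calls for control wells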
- Calls: active = hit (p65 shift raised or lowered); inactive = no clear change

no.	Target gene	p65 translocation robust z-score	nuclear/cytoplasmic p65 ratio, rep 1	nuclear/cytoplasmic p65 ratio, rep 2	low cell count flag	activity call
1	Cd3d	0.38	1.53	1.41	enough cells to score	inactive
2	Lsm10	-1.55	1.48	1.34	enough cells to score	inactive
3	Cpne8	0.1	1.66	1.72	enough cells to score	inactive
4	Tgif1	-0.71	1.36	1.47	enough cells to score	inactive
5	Or1j18	1.71	1.8	1.71	enough cells to score	inactive
6	Oxsr1	0.87	1.8	1.5	enough cells to score	inactive
7	Atl2	-0.72	1.41	1.49	enough cells to score	inactive
8	Id3	-0.87	1.29	1.29	enough cells to score	inactive
9	Cdk20	-0.43	1.58	1.33	enough cells to score	inactive
10	Mnd1	-1.59	1.18	1.26	enough cells to score	active
11	Tesc	0.83	1.48	1.27	enough cells to score	inactive
12	Stat6	0.18	1.52	1.64	enough cells to score	inactive
13	Cdc25c	0.52	1.48	1.49	enough cells to score	inactive
14	Magt1	2.07	1.67	1.85	enough cells to score	inactive
15	Plg	-0.52	1.46	1.31	enough cells to score	inactive
16	Mrps12	-0.99	1.56	1.5	enough cells to score	inactive
17	Gstz1	-0.49	1.34	1.34	enough cells to score	inactive
18	Mogat2	1.84	1.6	1.66	enough cells to score	inactive

Reagents listed so far called active:
Target gene	p65 translocation robust z-score	nuclear/cytoplasmic p65 ratio, rep 1	nuclear/cytoplasmic p65 ratio, rep 2	low cell count flag	activity call
Mnd1	-1.59	1.18	1.26	enough cells to score	active

More records follow:
no.	Target gene	p65 translocation robust z-score	nuclear/cytoplasmic p65 ratio, rep 1	nuclear/cytoplasmic p65 ratio, rep 2	low cell count flag	activity call
19	Fst	0.11	1.42	1.41	enough cells to score	inactive
20	Or10a48	0.35	1.4	1.39	enough cells to score	inactive
21	Ndufaf7	-0.44	1.38	1.37	enough cells to score	inactive
22	Rpgrip1l	-0.66	1.21	1.43	enough cells to score	inactive
23	Mcm2	-0.27	1.4	1.31	enough cells to score	inactive
24	Stx3	0.5	1.48	1.3	enough cells to score	inactive
25	Klf11	1.14	1.65	1.71	enough cells to score	inactive
26	Elmod2	-0.15	1.47	1.46	enough cells to score	inactive
27	Pex1	0.26	1.61	1.31	enough cells to score	inactive
28	Pigb	-1.08	1.3	1.12	enough cells to score	inactive
29	Slc67a2		1.07	1.26	fewer than 50 cells per well; well left out of scoring	inactive
30	Tceal1	-0.59	1.32	1.1	enough cells to score	inactive
31	Erbb3	0.73	1.88	1.42	enough cells to score	inactive
32	Wdr48	0.41	1.55	1.53	enough cells to score	inactive
33	Sumo1	2.12	1.55	2.17	enough cells to score	inactive
34	Ttc22		1.33	1.24	fewer than 50 cells per well; well left out of scoring	inactive
35	Rnf208		1.46	1.56	fewer than 50 cells per well; well left out of scoring	inactive
36	Traf2	-0.14	1.5	1.48	enough cells to score	inactive
37	Pcdhb9	0.48	1.36	1.3	enough cells to score	inactive
38	Camk1	0.16	1.66	1.45	enough cells to score	inactive
39	Nyap1	-0.1	1.38	1.56	enough cells to score	inactive
40	Cdt1	-0.45	1.44	1.17	enough cells to score	inactive
